Test results as given in publication PMC8556396, “Statin-mediated disruption of Rho GTPase prenylation and activity inhibits respiratory syncytial virus infection” (Communications Biology, 2021).
Values joined by “and” are separate entries in the source; they are usually repeats but may differ in a detail not shown here. Equal entries are not always repeated. Structures can show the parent of a compound that is named as a salt.

Experiments:
GTP-bound RhoA = conditions: atorvastatin 3.5 µM, RSV A2-infected HEp-2 lysates, relative to DMSO
RSV A2 = assay: Immunofluorescence staining and microscopy of RSV F and N; conditions: for RSV F intensity (a.u.): simvastatin 1.5 uM;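 on RSV F intensity (a.u.): fluorescence normalized to total nuclear count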
GTP-bound Rac1 = conditions: atorvastatin 3.5 µM, RSV A2-infected HEp-2 lysates, relative to DMSO

For CC(C)c1c(C(=O)Nc2ccccc2)c(-c2ccccc2)c(-c2ccc(F)cc2)n1CC[C@@H](O)C[C@@H](O)CC(=O)O [Atorvastatin, Atorvastatin calcium salt trihydrate], the “GTP-bound RhoA level” value (GTP-bound RhoA) was “decrease in GTP-bound RhoA and Rac1 levels”, the “RSV F intensity (a.u.)” value (RSV A2; Fig 5B, statin alone: atorvastatin 3.5 uM) was 0.4011 a.u. and 0.2378 a.u. and 0.2898 a.u. and 0.2493 a.u and the “RSV F intensity (a.u.)” value (RSV A2; Fig 7B, atorvastatin 3.5 uM, EHT 1864 20 uM, CN04 1 uM, CN04 1 uM + Ato 3.5 uM) was 0.4595 a.u. and 0.2913 a.u. and 0.3801 a.u. and 0.2605 a.u. For the same compound, the “F protein surface expression by confocal microscopy” value (RSV A2; RSV A2 MOI 0.5, HEp-2, atorvastatin 3.5 µM, MBCD 1.0 mM, EHT 1864 20.0 µM) was “perturbed surface expression of the F protein” and the “GTP-bound Rac1 level” value (GTP-bound Rac1) was “decrease in GTP-bound RhoA and Rac1 levels”.
